One substance from publication doi:10.1101/2024.03.13.584761 can be followed below.

Amino acid sequences for entries named in this document (tags omitted).
UniProt O15131: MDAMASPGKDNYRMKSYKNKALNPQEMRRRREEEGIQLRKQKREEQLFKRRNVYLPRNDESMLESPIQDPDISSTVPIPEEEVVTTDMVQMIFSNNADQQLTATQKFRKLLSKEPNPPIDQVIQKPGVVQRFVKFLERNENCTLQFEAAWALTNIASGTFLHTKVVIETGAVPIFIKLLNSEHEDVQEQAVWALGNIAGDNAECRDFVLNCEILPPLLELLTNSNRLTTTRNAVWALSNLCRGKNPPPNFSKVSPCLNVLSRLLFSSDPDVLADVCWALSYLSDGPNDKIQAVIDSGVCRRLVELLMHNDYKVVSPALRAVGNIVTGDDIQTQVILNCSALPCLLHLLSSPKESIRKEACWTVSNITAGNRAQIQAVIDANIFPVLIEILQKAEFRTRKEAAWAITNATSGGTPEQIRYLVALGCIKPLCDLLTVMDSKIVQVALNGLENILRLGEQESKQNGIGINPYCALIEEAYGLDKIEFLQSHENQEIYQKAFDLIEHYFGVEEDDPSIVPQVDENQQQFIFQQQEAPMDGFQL
UniProt Q05322: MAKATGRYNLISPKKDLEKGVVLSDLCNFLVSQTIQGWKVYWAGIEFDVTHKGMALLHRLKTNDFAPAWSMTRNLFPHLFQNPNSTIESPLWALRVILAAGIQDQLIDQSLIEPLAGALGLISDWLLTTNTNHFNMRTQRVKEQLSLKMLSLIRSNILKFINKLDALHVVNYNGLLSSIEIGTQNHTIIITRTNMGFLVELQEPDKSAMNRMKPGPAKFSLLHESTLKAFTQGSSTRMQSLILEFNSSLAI

The assay concerns the target HA-tagged IMPA6 (importin-alpha 6) (UniProt O15131). Description: co-IP.

These are yes or no findings as the source states them, for the method shown. Binding seen in cells or lysates may run through a third protein. Some entries that bind do so weakly or less than the wild type.

In the case of “Ebola virus (EBOV) VP24 wildtype (from UniProt Q05322 1-251)”, the binding entry is given as “binds”.
